Data on one substance can be found in publication PMC12507909.

Protein sequences, listed by entry. Tags and fused reporters are not part of them.
UniProt Q99623: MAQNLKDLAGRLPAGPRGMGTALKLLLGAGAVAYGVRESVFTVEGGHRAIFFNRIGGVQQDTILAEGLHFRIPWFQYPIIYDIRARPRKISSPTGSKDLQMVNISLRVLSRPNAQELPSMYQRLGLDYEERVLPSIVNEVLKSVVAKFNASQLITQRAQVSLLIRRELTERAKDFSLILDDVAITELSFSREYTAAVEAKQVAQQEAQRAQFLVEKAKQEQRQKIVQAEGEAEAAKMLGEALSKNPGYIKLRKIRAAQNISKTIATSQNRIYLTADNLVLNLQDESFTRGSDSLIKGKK

Results are given in words; binding and its absence hold for the method and conditions named. In cells and extracts the contact can be indirect. Here binding means that the protein was enriched with, or labelled near, the bait; the list need not be complete.

For this experiment, the target named is prohibitin-2 (PHB2) on JK-1 cells (human (endogenous in JK-1)) (UniProt Q99623). Put plainly: proximity labelling; JK-1 cells incubated with PvRBP1a_(158-650)LTID or LTID at 3 µM for 3 hours, washed, biotinylation buffer 15 minutes at 37°C; biotinylated proteins enriched on streptavidin magnetic beads and identified by DDA LC-MS, validated by PRM LC-MS; duplicates; only the binder purified.

In the case of “PvRBP1a_(158-650)LTID fusion protein (from UniProt Q5DSE1) (domain or fragment)”, the binding entry is recorded as “binds”.
